Where a chain is given by its changes, count along the chain named. These are yes or no findings as the source states them, for the method shown. Some binding calls cover weakened binding; strength is not graded here.

By UniProt entry, the sequences of proteins in these tests, tags left out. Residues count along the entry.
UniProt P05067, residues 672-713: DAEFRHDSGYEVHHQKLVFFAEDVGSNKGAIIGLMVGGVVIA

In assay [1] the target is synthetic Aβ protofibrils (Aβ1-42-derived protofibrils) (UniProt P05067). In words: binding profile column of Table 5.
For assay [2] the target is unchanged. In words: biochemical binding profile of hybridoma-purified mAbs.
Assay [3] concerns the target amyloid plaques (Aβ deposits) in human AD brain sections (human) (UniProt P05067). In words: immunohistochemistry on non-fixed brain cryo-sections.
Assay [4] has the same target. Description: immunohistochemistry on paraffin-embedded PFA-fixed brain sections.
Assay [5] has the same target. In words: immunohistochemistry on paraffin-embedded, PFA-fixed AD brain sections.

B1: B73 (hybridoma-purified mAb) (antibody, V domains shown)
VH: QLQLQMSGPGLVKPSETLSLTCTVSGGSISSSSYYWGWIRQSPGKGLEWIGSIYYSGRTYYNPSLKSRVTISVDTSKNQFSLKLSSVTAADTAMYYCARRSSGRPYYWGQGTLVTVSS
VL: QAVVTQESALTTSPGGTVILTCRSSTGAVTTSNYANWVQEKPDHLFTGLIGETNNRAPGVPVRFSGSLIGDKAALTITGAQTEDDAMYFCALWYSTHWVFGGGTKLTVL
For B1, the binding entry in assay [1] and in assay [2] was “binds” throughout.

B2: rB73 (recombinant B73, human IgG1 LALA) (antibody, V domains shown)
VH: B1 VH
VL: QAVVTQESALTTSPGGTVILTCRSSTGAVTTSNYANWVQEKPDHLFTGLIGETNNRAPGVPVRFSGSLIGDKAALTITGAQTEDDAMYFCALWYSTHWVFGGGTKLTVLG
Consider B2, for which the binding result in assay [3] is “binds”.

B3: B19 reprep (=B24) (antibody, V domains shown)
VH: EVQLLESGGGLVQPGGSLRLSCAASGFTFSSYAMTWVRQAPGEGLEWVSTISGSGIRTYYADSVKGRFTISRDNSKNTMYLQMNSLRAEDTAVYYCAKDGLTGDRRWYFDLWGRGTLVTVSS
VL: EIVMTQSPATLSLSPGERATLSCRASQSVSSSYFSWYQQKPGQAPRLLIYGASTRATGIPARFSGSGSGTDFTLTISSLQPEDFAVYYCQQDSNLPLTFGGGTKVEIK
Turning to B3, in assay [1], the binding result is on record as “binds”.

B4: B24 (hybridoma-purified mAb) (antibody, V domains shown)
VH: B3 VH
VL: B3 VL
Regarding B4, the binding entry in assay [1] and in assay [2] was “binds” throughout.

B5: B28 (hybridoma-purified mAb) (antibody, V domains shown)
VH: QVQLVESGGGVVQPGRSVRLSCAATGFTFSSYGMHWVRQAPGKGLEWVAVIWFDGSNEYYADSVRGRFTISRDNSKNTLYLQMNSLRAEDTAVYYCARRGRVGVTRNYYYYNMDVWGQGTTVTVSS
VL: AIQMTQSPSSLSASVGDRVTITCRASQGIRNDLGWFQQKPGKAPKLLIYPASSLQSGVPSRFSGSGSDTDFTLTISSLQPEDFATYYCLQDYNFPFTFGPGTKVDIK
B5: the binding result in assay [1] is recorded as “binds”.

B6: B54 (hybridoma-purified mAb) (antibody, V domains shown)
VH: QVQLVESGGGVVQPGRSLRLSCAASGFTFSTYGMHWVRQAPGKGLEWVALIWYDGSKKYYADSVQGRFTISRDSSKNTLYLQMNSLRVEDTAVYYCARRGRVGVTRNYYYYGMDVWGQGTTVTVSS
VL: B5 VL with A25T, G28D, L46F, S56G, D68G, T72I, F96W, P100E, D105E
On to B6, for which the binding result in assay [1] is reported as “binds”.

B7: B90 (hybridoma-purified mAb) (antibody, V domains shown)
VH: B6 VH with T31S, L50I, Q65K, S74N, V104A, N107D, G112S
VL: B5 VL with Q37H, P50A, D68G, N93V, F94Y, F96W, P100Q, D105E
In the case of B7, the binding entry in assay [1] and in assay [2] was “binds” throughout.

B8: rB28 (recombinant B28, human IgG1 LALA) (antibody, V domains shown)
VH: B5 VH
VL: AIQMTQSPSSLSASVGDRVTITCRASQGIRNDLGWFQQKPGKAPKLLIYPASSLQSGVPSRFSGSGSDTDFTLTISSLQPEDFATYYCLQDYNFPFTFGPGTKVDIKR
Consider B8, for which the binding result in assay [4], in assay [5] and in assay [3] was “binds” each time.

The values are drawn from US20230107034A1.
